# Reference: the supplement of paper PMC11098740
# This is one part of the list. Many values rest on one well or one pass, so single values are uncertain.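 The assay uses a mixed pool of 41 HAP1 clones in which 61 cancer-associated proteins bear intron-inserted fluorescent tags, and clones are distinguished by image pattern. Results are compared against DMSO-treated control wells, and the BRD4 degrader dBET6 is the positive control.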
# Target: BRD4 (intron 10 mScarlet tag, HAP1) (UniProt O60885)
# Assay: BRD4 median nuclear fluorescence intensity change vs DMSO (log2 fold change); higher = more BRD4 protein
# Details: 6 h
row,SMILES,BRD4 median nuclear fluorescence intensity change (log2)
1,CCOC(=O)C1=C(CCl)NC(=O)NC1c1ccccc1Cl (centres undefined) (10 µM),-0.115
2,CCn1c(=O)c2ccccc2n2c(CCl)nnc12 (10 µM),-0.0154
3,CCOC(=O)c1c(NC(=O)COc2ccccc2OCC)sc2c1CC(C)(C)NC2(C)C (10 µM),-0.0135
4,Cn1c(=O)c2c(ncn2Cc2ccc(-c3ccccc3C#N)cc2)n(C)c1=O (10 µM),0.0387
5,Cc1cc(C)cc(Nc2nc(-c3ccc(Br)cc3)cs2)c1 (10 µM),0.214
6,COC(=O)c1ccc(CSc2ncnc3[nH]ncc23)cc1 (10 µM),0.0371
7,CC(C)c1ccc(C(=O)N=C(N)N)cc1S(C)(=O)=O [cariporide] (10 µM),-0.0408
8,Cc1nn(Cc2ccccc2)c(C)c1CNC(=O)CN(C)c1c(C)noc1C (10 µM),0.0549
9,Cc1ccc(-c2ccc(C(=O)NCc3nnc4ccccn34)s2)o1 (1 µM),0.073
10,Cc1sc(-c2ccco2)nc1C(=O)N1CCCSc2ccccc21 (0.1 µM),0.17
11,CCOC(=O)c1sc2nc(CCl)nc(N)c2c1C (10 µM),0.0152
12,CC(C)(C)c1csc(NC(=O)c2ccc(S(=O)(=O)C(F)F)cc2)n1 (10 µM),-0.0473
13,O=C(Nc1cc(C(F)F)ns1)Nc1cc(F)ncc1CO (10 µM),-0.0693
14,CC(=O)Nc1nc2ccc(NC(=O)c3c(C)nn(C)c3C)cc2s1 (10 µM),-0.0064
15,COc1ccc(CC(=O)NCc2ccc(C(=O)N3CCCCC3)cc2)cc1 (10 µM),0.0816
16,O=S(=O)(Cc1ccccc1)NCCCNc1ccc(C(F)(F)F)cn1 (1 µM),-0.0217
17,Cc1nc(-c2ccc(NC(=O)c3ccco3)cc2)cs1 (1 µM),0.0187
18,Cn1c(=O)c2c(nc(N3CCNCC3)n2Cc2nnc(-c3ccc(Cl)c(Cl)c3)o2)n(C)c1=O (10 µM),-0.0707
19,Cc1cc(NCCCn2ccc3ccccc32)c2ccccc2n1 (10 µM),-0.0336
20,CCOC(=O)c1oc2ccccc2c1CSc1nncc2ccccc12 (10 µM),-0.00403

# Nothing new here: two of the compounds above.
row,SMILES,BRD4 median nuclear fluorescence intensity change (log2)
3,CCOC(=O)c1c(NC(=O)COc2ccccc2OCC)sc2c1CC(C)(C)NC2(C)C (10 µM),-0.0135
4,Cn1c(=O)c2c(ncn2Cc2ccc(-c3ccccc3C#N)cc2)n(C)c1=O (10 µM),0.0387

# Further structures follow:

row,SMILES,BRD4 median nuclear fluorescence intensity change (log2)
1,Cc1ccoc1C(=O)Nc1ccc2c(c1)CCN2C(=O)c1ccoc1 (10 µM),-0.0276
2,Cn1c(=O)c2sccc2n2c(CCl)nnc12 (10 µM),-0.0154
3,Cc1ccc(-c2nnc(Sc3ncnc4sccc34)o2)cc1 (10 µM),0.0501
4,O=C(Nc1cc2c(cc1Cl)OCCCO2)c1cccnc1N1CCCCC1 (10 µM),0.0599
5,CCCc1cc(=O)n2nc(Br)sc2n1 (10 µM),-0.0286
6,CN(C)CCCNCCCc1ccc(C(C)(C)C)cc1 (10 µM),0.112
7,CCOC(=O)c1ccnc(CNCC(=O)N(CC)CCN(C)C)c1 (20 µM),0.0758
8,Cn1nc(CC(=O)Nc2cc(C(C)(C)C)ccc2O)c2ccccc2c1=O (10 µM),0.088
9,COc1cccc(-n2cnnc2SCC(=O)NCc2ccc(Cl)cc2)c1 (10 µM),-0.125
10,COc1ccc(S(=O)(=O)Nc2cccc(-n3cccn3)c2)cc1 (10 µM),0.196
11,CC(C)(C)c1cc(Nc2ccncc2)n2ncc(-c3ccccc3)c2n1 (10 µM),0.0937
12,COc1ccc(-c2cc(-c3c(O)ccc4ccccc34)[nH]n2)cc1 (10 µM),-0.0816
13,CNC(=O)C1CCN(Cc2cc(Cl)c3ccccc3c2O)CC1 (0.1 µM),0.0509
14,CC(=O)c1c(C)cc(C)c(CN2CCN(c3cnccn3)CC2)c1C (0.1 µM),0.0409
15,N#CC(C#N)=C1C=CC=CN1/C(=C/c1cccc(F)c1)C(=O)c1cccs1 (10 µM),0.0639
16,Cc1ccc(C)c(Nc2cc(C)nc(-c3ccccc3O)n2)c1 (10 µM),0.0968
17,O=C(CSc1nc2ccccc2[nH]1)Nc1ccc(Cl)cn1 (10 µM),0.0511
18,COC(=O)c1cc(NC(=O)c2cnc3onc(C)c3c2)cc(C)c1C (10 µM),0.0719
19,c1ccc2c(NC3CCCCCC3)nsc2c1 (10 µM),0.0228
